# Reference: paper PMC5341999
# Chains of the proteins cited; added tags and fusions are not shown. Lines headed by an entry give the natural chain unless they say otherwise; changes in a name come on top.
# UniProt P49841: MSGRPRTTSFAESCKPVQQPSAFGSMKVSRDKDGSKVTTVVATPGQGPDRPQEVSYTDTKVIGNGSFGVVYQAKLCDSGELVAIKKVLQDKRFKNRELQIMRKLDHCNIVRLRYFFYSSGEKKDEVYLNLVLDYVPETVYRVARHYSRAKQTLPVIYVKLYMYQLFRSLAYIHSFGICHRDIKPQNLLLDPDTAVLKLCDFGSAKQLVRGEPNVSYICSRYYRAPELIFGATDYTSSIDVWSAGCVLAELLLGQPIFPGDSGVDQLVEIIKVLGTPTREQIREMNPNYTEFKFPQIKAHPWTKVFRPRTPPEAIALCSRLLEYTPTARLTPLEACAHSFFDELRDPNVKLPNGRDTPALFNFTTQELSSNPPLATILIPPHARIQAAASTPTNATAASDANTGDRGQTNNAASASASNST
# UniProt P24385: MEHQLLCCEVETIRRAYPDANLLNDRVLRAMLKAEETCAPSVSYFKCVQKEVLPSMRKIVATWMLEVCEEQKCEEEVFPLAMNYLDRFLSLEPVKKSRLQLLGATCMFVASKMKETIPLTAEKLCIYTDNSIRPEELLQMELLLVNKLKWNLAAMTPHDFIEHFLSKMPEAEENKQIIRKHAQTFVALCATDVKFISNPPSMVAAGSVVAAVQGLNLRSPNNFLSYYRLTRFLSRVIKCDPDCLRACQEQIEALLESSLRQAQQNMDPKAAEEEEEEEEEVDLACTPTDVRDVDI
# Results are given in words; binding and its absence hold for the method and conditions named. In cells and extracts the contact can be indirect. Some binding calls cover weakened binding; strength is not graded here.
# Key:
# [1] = biological target: glycogen synthase kinase 3 beta (GSK3B) (human (endogenous in JEKO-1)) (UniProt P49841); assay: co-IP; reverse co-IP: JEKO-1 cell lines expressing EV, WT or mutant CCND1-HA immunoprecipitated with GSK3B antibody and immunoblotted
# [2] = biological target: wild type CCND1-HA (cyclin D1, carboxy-terminus HA-tagged) (human) (UniProt P24385); assay: co-IP; JEKO-1 lysates (25 mM Tris-HCl pH 7.4, 150 mM NaCl, 1% NP-40, 1 mM EDTA, 5% glycerol) precleared with IgG1 isotype control and protein A agarose; about 1.5 mg lysate with HA antibody-conjugated agarose beads overnight at 4°C; washed 4 times in PBS with 0.5% NP40; immunoblot
# [3] = biological target: Y44D CCND1-HA (human) (UniProt P24385); assay: as above
# [4] = biological target: C47S CCND1-HA (human) (UniProt P24385); assay: as above
binding [1],binding [2],binding [3],binding [4],Substance
binds,,,,C47S CCND1-HA (from UniProt P24385 1-295)
binds,,,,T286A CCND1-HA (from UniProt P24385 1-295)
binds,,,,Y44D CCND1-HA (from UniProt P24385 1-295)
,binds,binds,binds,glycogen synthase kinase 3 beta (GSK3B) (from UniProt P49841 1-420) (enzyme)
binds,,,,"wild type CCND1-HA (cyclin D1, carboxy-terminus HA-tagged) (from UniProt P24385 1-295)"
